Test results: article PMC7599914
These are yes or no findings as the source states them, for the method shown. In cells and extracts the contact can be indirect. Some binding calls cover weakened binding; strength is not graded here.

By UniProt entry, the sequences of proteins in these tests, tags left out. Residues count along the entry.
UniProt Q9Z0W1, residues 32-427: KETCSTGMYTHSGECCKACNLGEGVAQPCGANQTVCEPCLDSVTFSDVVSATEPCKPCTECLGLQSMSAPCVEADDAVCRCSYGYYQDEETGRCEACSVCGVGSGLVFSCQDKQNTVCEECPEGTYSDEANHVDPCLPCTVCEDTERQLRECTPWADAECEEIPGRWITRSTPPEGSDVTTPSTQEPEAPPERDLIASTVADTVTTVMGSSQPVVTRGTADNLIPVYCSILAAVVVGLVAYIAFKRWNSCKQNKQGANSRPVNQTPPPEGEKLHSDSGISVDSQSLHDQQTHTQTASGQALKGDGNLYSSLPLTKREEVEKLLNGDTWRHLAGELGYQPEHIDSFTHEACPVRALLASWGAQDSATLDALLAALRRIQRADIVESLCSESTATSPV

What was measured:
[1] = molecular target: p75 neurotrophin receptor (mouse (endogenous in Tibialis anterior muscle)) (UniProt Q9Z0W1); assay: co-IP; 1 mg nuclear extract of Tibialis anterior from mdx mice; rabbit anti-p75NTR (10 ug) and protein A-agarose, 4 °C; blot for p75NTR and necdin
[2] = molecular target: p75 neurotrophin receptor (mouse (endogenous in Tibialis anterior muscle)) (UniProt Q9Z0W1); assay: condition: only nuclear extract of muscle from wild-type (WT) mice; co-IP; 1 mg nuclear extract of Tibialis anterior from wild-type (WT) mice; rabbit anti-p75NTR (10 ug) and protein A-agarose, 4 °C; blot for p75NTR and necdin

B1: necdin (protein, UniProt P25233 1-325)
chain: MSEQSKDLSDPNFAAEVPDCEMQDSDAVPVGIPPPASLAANLAGPPCAPEGPMAAQQASPPPEERIEDVDPKILQQAAEEGRAHQPQSPARPIPAPPAPAQLVQKAHELMWYVLVKDQKRMVLWFPDMVKEVMGSYKKWCRSILRRTSVILARVFGLHLRLTNLHTMEFALVKALSPEELDRVALNNRMPMTGLLLMILSLIYVKGRGAREGAVWNVLRILGLRPWKKHSTFGDVRKIITEEFVQQNYLKYQRVPHIEPPEYEFFWGSRANREITKMQIMEFLARVFKKDPQAWPSRYREALEQARALREANLAAQAPRSSVSED
Q: For B1, which binding [1] is on record?
A: binds

Q: And the binding [2]?
A: no binding
